Test results: PMC10959363
No constants are given. Whether binding was seen depends on the method and setting. Binding seen in cells or lysates may run through a third protein. Where a sequence is shown, tags or fusion partners need not be part of it.

Protein sequences, listed by entry. Tags and fused reporters are not part of them.
UniProt Q9QR71: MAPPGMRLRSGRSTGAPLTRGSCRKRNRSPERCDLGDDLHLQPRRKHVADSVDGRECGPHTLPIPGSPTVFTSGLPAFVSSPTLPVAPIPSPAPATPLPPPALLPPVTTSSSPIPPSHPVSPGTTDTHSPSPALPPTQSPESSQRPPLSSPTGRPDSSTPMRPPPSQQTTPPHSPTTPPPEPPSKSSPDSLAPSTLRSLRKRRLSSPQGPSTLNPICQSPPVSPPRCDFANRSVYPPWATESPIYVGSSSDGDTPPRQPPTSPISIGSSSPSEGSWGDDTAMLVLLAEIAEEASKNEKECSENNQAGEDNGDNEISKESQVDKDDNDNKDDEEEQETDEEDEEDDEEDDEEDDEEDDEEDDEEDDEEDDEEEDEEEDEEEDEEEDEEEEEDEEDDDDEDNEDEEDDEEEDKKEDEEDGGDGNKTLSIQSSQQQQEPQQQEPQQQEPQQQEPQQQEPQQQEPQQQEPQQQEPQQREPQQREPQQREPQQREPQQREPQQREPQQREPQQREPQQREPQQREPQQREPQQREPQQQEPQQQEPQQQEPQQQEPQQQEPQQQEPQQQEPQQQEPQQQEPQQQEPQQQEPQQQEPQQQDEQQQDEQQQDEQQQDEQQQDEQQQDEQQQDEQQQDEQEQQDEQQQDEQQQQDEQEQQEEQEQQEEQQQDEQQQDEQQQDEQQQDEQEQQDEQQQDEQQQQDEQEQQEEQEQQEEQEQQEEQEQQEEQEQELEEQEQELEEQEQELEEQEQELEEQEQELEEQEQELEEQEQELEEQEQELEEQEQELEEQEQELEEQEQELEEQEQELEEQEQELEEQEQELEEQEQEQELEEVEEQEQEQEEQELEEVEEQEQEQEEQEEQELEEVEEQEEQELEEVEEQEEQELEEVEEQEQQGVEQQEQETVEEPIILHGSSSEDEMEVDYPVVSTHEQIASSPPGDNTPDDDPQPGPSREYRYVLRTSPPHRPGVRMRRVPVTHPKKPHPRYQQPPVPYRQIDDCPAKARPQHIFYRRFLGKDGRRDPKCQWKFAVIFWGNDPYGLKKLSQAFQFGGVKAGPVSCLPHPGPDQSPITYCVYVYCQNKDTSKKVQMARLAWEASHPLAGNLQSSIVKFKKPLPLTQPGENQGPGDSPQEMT

What was measured:
[1] = target: T1, KSHV viral cyclin, Myc-tagged (vCyclin-Myc) (Kaposi's sarcoma-associated herpesvirus (KSHV)) (UniProt Q77Q36); assay: co-IP; KMM cells lentivirally transduced with SERBP1-HA and the tagged partner; lysate immunoprecipitated by the partner's tag (anti-Myc or anti-Flag antibody) on magnetic beads at 4°C overnight, washed with TBST, Western blotting
T1 sequence: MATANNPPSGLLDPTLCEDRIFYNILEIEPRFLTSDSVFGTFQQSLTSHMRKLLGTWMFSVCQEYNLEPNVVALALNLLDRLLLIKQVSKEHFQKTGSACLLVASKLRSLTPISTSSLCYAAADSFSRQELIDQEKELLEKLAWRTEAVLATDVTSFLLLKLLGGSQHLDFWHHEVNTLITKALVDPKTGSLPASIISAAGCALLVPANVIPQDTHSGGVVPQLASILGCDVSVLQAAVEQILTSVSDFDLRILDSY

[2] = target: KSHV latency associated nuclear antigen, Flag-tagged (LANA-Flag) (Kaposi's sarcoma-associated herpesvirus (KSHV)) (UniProt Q9QR71); assay: as above

B1: SERPINE1 mRNA binding protein 1, HA-tagged (SERBP1-HA) (protein, UniProt Q6AXS5 1-407)
chain: MPGHLQEGFGCVVTNRFDQLFDDESDPFEVLKAAENKKKEAGGGGVGGPGAKSAAQAAAQTNSNAAGKQLRKESQKDRKNPLPPSVGVADKKEETQPPVALKKEGIRRVGRRPDQQLQGDGKIIDRRPERRPPRERRFEKPLEEKGEGGEFSVDRPIIERPIRGRGGLGRGRGGRGRGMGRGDGFDSRGKREFDRHSGSDRSSFSHYSGLKHEDKRGGSGSHNWGTVKDELTESPKYIQKQISYNCSDLEQSNVTEETPEGEEHPVADTENKENEVEEVKEEGPKEMTLDEWKAIQNKDRAKVEFNIRKPNEGADGQWKKGFVLHKSKSEEAHAEDSVMDHHFRKPANDITSQLEINFGDLGRPGRGGRGGRGGRGRGGRPNRGSRTDKSSASAPDVDDPEAFPALA
- binding [1]: no binding
- binding [2]: no binding
